Data reported in PMC2900177.
These are yes or no findings as the source states them, for the method shown. In cells and extracts the contact can be indirect. Some entries that bind do so weakly or less than the wild type. Tags and fused reporters may be left off the sequences shown.

The chains behind the UniProt entries cited, without tags or fusion partners.
UniProt Q61037: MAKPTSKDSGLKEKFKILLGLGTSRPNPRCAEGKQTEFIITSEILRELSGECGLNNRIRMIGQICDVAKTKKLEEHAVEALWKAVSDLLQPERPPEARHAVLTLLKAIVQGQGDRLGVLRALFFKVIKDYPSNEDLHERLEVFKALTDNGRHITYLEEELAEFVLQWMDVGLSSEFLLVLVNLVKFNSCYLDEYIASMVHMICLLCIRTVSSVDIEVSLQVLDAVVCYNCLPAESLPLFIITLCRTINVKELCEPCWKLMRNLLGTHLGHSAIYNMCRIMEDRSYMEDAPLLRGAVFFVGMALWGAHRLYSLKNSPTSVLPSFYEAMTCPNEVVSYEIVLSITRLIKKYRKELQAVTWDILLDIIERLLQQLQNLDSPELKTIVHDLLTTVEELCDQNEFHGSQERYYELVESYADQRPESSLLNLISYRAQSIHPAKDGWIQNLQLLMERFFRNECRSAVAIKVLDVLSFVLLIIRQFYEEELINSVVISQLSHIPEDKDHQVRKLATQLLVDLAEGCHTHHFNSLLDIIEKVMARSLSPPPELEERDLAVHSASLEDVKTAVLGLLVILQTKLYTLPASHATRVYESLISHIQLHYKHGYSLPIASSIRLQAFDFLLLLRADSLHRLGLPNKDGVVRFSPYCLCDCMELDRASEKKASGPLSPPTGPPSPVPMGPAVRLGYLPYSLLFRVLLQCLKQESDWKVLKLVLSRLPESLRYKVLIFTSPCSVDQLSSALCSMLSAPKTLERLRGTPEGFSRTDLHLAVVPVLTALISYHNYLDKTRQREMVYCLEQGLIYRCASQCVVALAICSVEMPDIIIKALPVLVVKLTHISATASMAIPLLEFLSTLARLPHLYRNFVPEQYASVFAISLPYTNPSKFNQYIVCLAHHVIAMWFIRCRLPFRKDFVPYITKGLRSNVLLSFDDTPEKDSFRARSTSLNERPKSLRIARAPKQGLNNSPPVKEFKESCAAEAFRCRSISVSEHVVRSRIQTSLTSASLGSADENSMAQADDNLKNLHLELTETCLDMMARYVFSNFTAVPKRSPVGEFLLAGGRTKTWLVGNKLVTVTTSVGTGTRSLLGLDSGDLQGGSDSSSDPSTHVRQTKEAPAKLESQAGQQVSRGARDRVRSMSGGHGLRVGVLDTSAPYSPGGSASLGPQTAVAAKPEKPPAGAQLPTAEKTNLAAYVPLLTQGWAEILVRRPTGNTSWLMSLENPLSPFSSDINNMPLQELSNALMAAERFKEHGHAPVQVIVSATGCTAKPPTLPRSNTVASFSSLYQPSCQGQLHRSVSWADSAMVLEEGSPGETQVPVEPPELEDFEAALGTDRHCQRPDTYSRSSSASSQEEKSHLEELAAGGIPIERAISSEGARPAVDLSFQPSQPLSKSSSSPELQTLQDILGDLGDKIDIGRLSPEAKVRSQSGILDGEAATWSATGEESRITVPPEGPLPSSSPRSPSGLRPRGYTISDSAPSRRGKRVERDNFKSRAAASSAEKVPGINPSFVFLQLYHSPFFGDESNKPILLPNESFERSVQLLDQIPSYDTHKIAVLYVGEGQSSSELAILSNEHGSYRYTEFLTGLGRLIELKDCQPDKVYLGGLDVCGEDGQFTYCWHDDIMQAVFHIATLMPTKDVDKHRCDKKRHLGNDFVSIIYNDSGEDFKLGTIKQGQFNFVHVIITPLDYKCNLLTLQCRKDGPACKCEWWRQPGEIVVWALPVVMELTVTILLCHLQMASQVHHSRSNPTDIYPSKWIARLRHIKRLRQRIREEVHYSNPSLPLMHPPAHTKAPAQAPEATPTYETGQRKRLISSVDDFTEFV

Key:
GST-14-3-3γ = biological target: T1, GST-14-3-3γ (UniProt P61981); assay: pull-down; GST-14-3-3 bound to glutathione-Sepharose beads, incubated with precleared NIH3T3 cell lysates 2 h at 4°C, washed three times with PBS, immunoblot for Raf-1, PI3K p110 and TSC2; only the target purified
T1 sequence: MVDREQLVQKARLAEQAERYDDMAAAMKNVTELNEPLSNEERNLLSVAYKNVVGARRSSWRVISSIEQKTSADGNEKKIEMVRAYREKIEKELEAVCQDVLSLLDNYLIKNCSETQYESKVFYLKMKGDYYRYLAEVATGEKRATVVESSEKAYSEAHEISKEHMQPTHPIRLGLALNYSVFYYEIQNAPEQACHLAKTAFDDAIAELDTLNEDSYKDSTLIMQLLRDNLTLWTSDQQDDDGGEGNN

FLAG-14-3-3γ [1] = biological target: T2, FLAG-14-3-3γ (UniProt P61981); assay: co-IP; 1 mg lysate of NIH3T3 cells stably expressing FLAG-14-3-3γ or FLAG-14-3-3σ, 5 µg anti-Flag antibody overnight at 4°C, protein A/G beads, washed with RIPA buffer, immunoblot; reciprocal IPs with anti-Raf-1, anti-p110 and anti-TSC2; also from cells treated with PD98059 (interaction with p110 not eliminated, with TSC2 reduced)
T2 sequence: T1 sequence

FLAG-14-3-3γ [2] = biological target: T2, FLAG-14-3-3γ; assay: co-IP; anti-FLAG IP from NIH3T3 cells stably expressing FLAG-14-3-3γ or FLAG-14-3-3σ that were treated with LY294002; immunoblot for p110 and TSC2

binding (GST-14-3-3γ)	binding (FLAG-14-3-3γ [1])	Substance	binding (FLAG-14-3-3γ [2])
binds	binds	Raf-1 (from UniProt Q99N57 1-648) (enzyme)	–
binds	binds	TSC2 (from UniProt Q61037 1-1814)	no binding (condition: cells treated with LY294002)
